Data on three molecules can be found in PMC4105463.

Results are given in words; binding and its absence hold for the method and conditions named. For some of these results: In cells and extracts the contact can be indirect. Some results given as binding are weak or reduced against the parent protein; the word gives no strength. For some of these results: Tags and fused reporters may be left off the sequences shown.

Experiment [1] has as its target T1, stefin B G4R mutant fused to a half of the yellow fluorescent protein (human) (UniProt P04080).
T1 sequence: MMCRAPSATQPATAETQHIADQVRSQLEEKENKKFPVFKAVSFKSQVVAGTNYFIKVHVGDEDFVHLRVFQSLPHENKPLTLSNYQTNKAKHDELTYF
The experiment in a line: split reporter; split YFP halves (NYFP, CYFP) on the C-terminus of each protein, co-transfected in HEK293 cells, live adherent cells imaged by confocal microscopy (488 nm).

Experiment [2] concerns the target stefin B wild type (C3E31) fused to a half of the yellow fluorescent protein (human) (UniProt P04080). The experiment is described as above.
Experiment [3] deals with recombinant stefin B wild type (Ser at position 3 instead of Cys) (human) (UniProt P04080). The experiment in a line: SEC; Superdex 75 column, 0.01 M phosphate buffer, 0.12 M NaCl, pH 6.1; both purified. Background: In gel filtration, larger molecules generally elute earlier.

B1: stefin B wild type (C3E31) fused to a half of the yellow fluorescent protein (protein, UniProt P04080 1-98)
chain: MMCGAPSATQPATAETQHIADQVRSQLEEKENKKFPVFKAVSFKSQVVAGTNYFIKVHVGDEDFVHLRVFQSLPHENKPLTLSNYQTNKAKHDELTYF
As to B1, the binding entry in experiment [1] and in experiment [2] was “binds” throughout.

B2: stefin B G4R mutant fused to a half of the yellow fluorescent protein (protein, UniProt P04080 1-98)
chain: MMCRAPSATQPATAETQHIADQVRSQLEEKENKKFPVFKAVSFKSQVVAGTNYFIKVHVGDEDFVHLRVFQSLPHENKPLTLSNYQTNKAKHDELTYF
For the molecule B2, the binding entry in experiment [1] was “binds”.

B3: recombinant stefin B wild type (Ser at position 3 instead of Cys) (protein, UniProt P04080 1-98)
chain: MMSGAPSATQPATAETQHIADQVRSQLEEKENKKFPVFKAVSFKSQVVAGTNYFIKVHVGDEDFVHLRVFQSLPHENKPLTLSNYQTNKAKHDELTYF
For B3, the binding result in experiment [3] is on record as “binds”.
